According to paper PMC12594597:
No constants are given. Whether binding was seen depends on the method and setting. Binding seen in cells or lysates may run through a third protein. Some binding calls cover weakened binding; strength is not graded here.

Protein sequences, listed by entry. Tags and fused reporters are not part of them.
UniProt Q14258: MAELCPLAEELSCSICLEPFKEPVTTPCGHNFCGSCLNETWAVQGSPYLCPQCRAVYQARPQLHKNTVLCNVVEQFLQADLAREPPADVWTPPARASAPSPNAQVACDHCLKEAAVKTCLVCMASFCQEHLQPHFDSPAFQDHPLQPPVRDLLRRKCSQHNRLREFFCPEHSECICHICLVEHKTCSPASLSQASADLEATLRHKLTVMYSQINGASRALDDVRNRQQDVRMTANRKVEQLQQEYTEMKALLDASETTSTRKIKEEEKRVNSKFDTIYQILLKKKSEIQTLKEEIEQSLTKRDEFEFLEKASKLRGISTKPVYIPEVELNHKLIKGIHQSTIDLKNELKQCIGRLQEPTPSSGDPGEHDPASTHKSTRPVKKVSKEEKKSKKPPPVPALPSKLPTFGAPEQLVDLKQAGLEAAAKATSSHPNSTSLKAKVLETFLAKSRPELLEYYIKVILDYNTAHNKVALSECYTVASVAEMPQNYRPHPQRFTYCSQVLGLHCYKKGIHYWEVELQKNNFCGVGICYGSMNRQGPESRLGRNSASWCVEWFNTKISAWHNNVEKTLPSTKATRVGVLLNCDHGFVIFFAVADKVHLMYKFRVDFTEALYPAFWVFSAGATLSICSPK

Tests used:
[1] = target: T1, Carnitine Palmitoyltransferase 1A (CPT1A) (human (endogenous in THP-1)) (UniProt P50416); assay: co-IP; endogenous proteins in THP-1-differentiated macrophages; lysates with specific antibodies overnight at 4 °C, protein A/G beads, immunoblot
T1 sequence: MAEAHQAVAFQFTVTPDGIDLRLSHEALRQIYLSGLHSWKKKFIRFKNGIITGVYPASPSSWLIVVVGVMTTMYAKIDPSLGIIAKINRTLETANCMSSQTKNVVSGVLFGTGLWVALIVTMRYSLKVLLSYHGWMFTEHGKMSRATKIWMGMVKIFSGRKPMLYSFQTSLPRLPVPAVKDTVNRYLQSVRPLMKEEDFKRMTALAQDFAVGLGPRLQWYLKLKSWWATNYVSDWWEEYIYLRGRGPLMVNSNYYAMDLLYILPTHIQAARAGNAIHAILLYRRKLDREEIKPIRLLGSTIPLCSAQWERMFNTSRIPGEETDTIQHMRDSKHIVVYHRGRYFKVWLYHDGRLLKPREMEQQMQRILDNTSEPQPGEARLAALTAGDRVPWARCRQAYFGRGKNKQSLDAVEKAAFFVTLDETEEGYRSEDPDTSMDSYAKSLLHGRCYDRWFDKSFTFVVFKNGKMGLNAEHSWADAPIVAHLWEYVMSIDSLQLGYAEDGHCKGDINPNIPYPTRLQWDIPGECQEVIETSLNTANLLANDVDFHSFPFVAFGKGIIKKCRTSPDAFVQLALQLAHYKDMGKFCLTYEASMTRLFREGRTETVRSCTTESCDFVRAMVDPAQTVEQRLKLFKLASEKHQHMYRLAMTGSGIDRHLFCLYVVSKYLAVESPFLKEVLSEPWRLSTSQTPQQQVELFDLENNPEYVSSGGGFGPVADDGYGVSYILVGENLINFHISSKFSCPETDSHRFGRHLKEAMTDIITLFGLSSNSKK

[2] = target: T2, CPT1A overexpressed in HEK293T cells (human) (UniProt P50416); assay: co-IP; HEK293T cells transfected with or without Flag-DPP7, or with different concentrations of exogenous Flag-DPP7; binding of TRIM25 to CPT1A by immunoblot
T2 sequence: T1 sequence

| binding [1] | binding [2] | Substance |
| --- | --- | --- |
| binds |  | TRIM25 (tripartite motif-containing 25) (from UniProt Q14258 1-630) |
|  | binds | TRIM25 in HEK293T cells (from UniProt Q14258 1-630) |
